Experimental data as given in PMC9137774, “The ArsH Protein Product of the Paracoccus denitrificans ars Operon Has an Activity of Organoarsenic Reductase and Is Regulated by a Redox-Responsive Repressor” (Antioxidants, 2022).
A negative result means that nothing was seen under these conditions. At least one verdict rests on a figure or table, not on a statement of the authors. Tags and fusion partners may be left off the protein sequences shown. For at least one entry, the source does not settle the construct or the ends of the probe.

How the values were obtained:
[1] = biological target: T1, ArsR1 (Paracoccus denitrificans) (UniProt A1B6S3); assay: EMSA; conditions: EMSA: 10 mM Tris-HCl, 50 mM NaCl, 0.5 mM EDTA, pH 8.0, room temperature, 10 µM DNA and 10 µM ArsR, recombinant protein, residues 1-119, protein details: N-terminal His6 (pET100/D-TOPO), label: 5'-FAM on strand 1
T1 sequence (looked up): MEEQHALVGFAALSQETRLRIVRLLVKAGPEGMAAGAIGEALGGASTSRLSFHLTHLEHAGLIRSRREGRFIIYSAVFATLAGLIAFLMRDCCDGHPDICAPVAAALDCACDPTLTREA

[2] = biological target: T2, ArsR2 (Paracoccus denitrificans) (UniProt A1B7C2); assay: EMSA; conditions: EMSA: 10 mM Tris-HCl, 50 mM NaCl, 0.5 mM EDTA, pH 8.0, room temperature, 10 µM DNA and 10 µM ArsR, recombinant protein, residues 1-120, protein details: N-terminal His6 (pET100/D-TOPO), label: 5'-FAM on strand 1
T2 sequence (looked up): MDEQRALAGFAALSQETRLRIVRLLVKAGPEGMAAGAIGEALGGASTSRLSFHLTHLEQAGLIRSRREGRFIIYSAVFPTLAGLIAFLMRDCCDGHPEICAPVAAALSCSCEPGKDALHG

[3] = sodium arsenite (0.1 mM in Results, 1 mM in Methods)

## ATCAACATATCTTGAGAGGTTGATTCG (double strand) [PDNA2]
[1]; 1 mM diamide
  binding result: no binding
[1]
  binding result: binds
[1]; [3]
  binding result: no binding
[2]; 1 mM diamide
  binding result: no binding
[2]
  binding result: binds
[2]; [3]
  binding result: no binding

## CTCAACATATCTTGAGAGGTTGATTCG (double strand) [PDNA1]
[1]; 1 mM diamide
  binding result: no binding
[1]
  binding result: binds
[1]; [3]
  binding result: no binding
[2]; 1 mM diamide
  binding result: no binding
[2]
  binding result: binds
[2]; [3]
  binding result: no binding
